# Reference: publication PMC3031627
# Amino acid sequences for entries named in this document (tags omitted).
# UniProt P53762: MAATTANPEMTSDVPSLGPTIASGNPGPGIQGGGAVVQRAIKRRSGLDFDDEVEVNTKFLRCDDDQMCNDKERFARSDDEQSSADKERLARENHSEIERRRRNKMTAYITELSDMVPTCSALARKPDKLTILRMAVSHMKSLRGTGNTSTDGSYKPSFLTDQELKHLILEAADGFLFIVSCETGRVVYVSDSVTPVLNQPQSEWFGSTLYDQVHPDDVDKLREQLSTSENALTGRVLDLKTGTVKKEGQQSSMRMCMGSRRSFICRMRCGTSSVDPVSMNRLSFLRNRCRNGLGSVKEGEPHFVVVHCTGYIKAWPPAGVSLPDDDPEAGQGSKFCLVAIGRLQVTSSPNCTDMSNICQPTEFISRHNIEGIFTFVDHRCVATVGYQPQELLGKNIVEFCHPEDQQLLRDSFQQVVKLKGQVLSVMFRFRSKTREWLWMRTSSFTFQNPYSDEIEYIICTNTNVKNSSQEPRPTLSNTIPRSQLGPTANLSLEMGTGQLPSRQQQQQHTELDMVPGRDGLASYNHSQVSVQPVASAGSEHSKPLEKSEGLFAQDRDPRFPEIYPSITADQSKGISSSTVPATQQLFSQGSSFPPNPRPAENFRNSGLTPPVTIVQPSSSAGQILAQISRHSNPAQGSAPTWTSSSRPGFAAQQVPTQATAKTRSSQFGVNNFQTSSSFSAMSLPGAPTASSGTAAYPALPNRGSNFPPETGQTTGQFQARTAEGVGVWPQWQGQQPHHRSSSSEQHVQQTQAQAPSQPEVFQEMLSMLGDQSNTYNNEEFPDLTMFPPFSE
# These are yes or no findings as the source states them, for the method shown. Binding seen in cells or lysates may run through a third protein. Some results given as binding are weak or reduced against the parent protein; the word gives no strength.
# Molecular target: HIF-1β, the constitutively expressed subunit of HIF-1 (Hypoxia inducible factor-1) (mouse (endogenous in mouse striatal cells)) (UniProt P53762)
# Assay: co-IP; HIF-1β immunoprecipitated from 100 µg lysate of stable striatal cell lines with rabbit anti-mouse HIF-1β antibody on anti-rabbit IgG magnetic beads, 4 h at 4°C; washed with 350 mM NaCl, 0.2% Triton-X in PBS; blotted for TG2; cells kept under normoxic or hypoxic conditions
row,binding,Binder
1,binds,"human wild type transglutaminase 2 (TG2) (enzyme, UniProt P21980 1-687) MAEELVLERCDLELETNGRDHHTADLCREKLVVRRGQPFWLTLHFEGRNYEASVDSLTFSVVTGPAPSQEAGTKARFPLRDAVEEGDWTATVVDQQDCTLSLQLTTPANAPIGLYRLSLEASTGYQGSSFVLGHFILLFNAWCPADAVYLDSEEERQEYVLTQQGFIYQGSAKFIKNIPWNFGQFEDGILDICLILLDVNPKFLKNAGRDCSRRSSPVYVGRVVSGMVNCNDDQGVLLGRWDNNYGDGVSPMSWIGSVDILRRWKNHGCQRVKYGQCWVFAAVACTVLRCLGIPTRVVTNYNSAHDQNSNLLIEYFRNEFGEIQGDKSEMIWNFHCWVESWMTRPDLQPGYEGWQALDPTPQEKSEGTYCCGPVPVRAIKEGDLSTKYDAPFVFAEVNADVVDWIQQDDGSVHKSINRSLIVGLKISTKSVGRDEREDITHTYKYPEGSSEEREAFTRANHLNKLAEKEETGMAMRIRVGQSMNMGSDFDVFAHITNNTAEEYVCRLLLCARTVSYNGILGPECGTKYLLNLNLEPFSEKSVPLCILYEKYRDCLTESNLIKVRALLVEPVINSYLLAERDLYLENPEIKIRILGEPKQKRKLVAEVSLQNPLPVALEGCTFTVEGAGLTEEQKTVEIPDPVEAGEEVKVRMDLLPLHMGLHKLVVNFESDKLKAVKGFRNVIIGPA"
2,binds,"TG2-C277S (transamidating inactive mutant of human TG2) (enzyme, UniProt P21980 1-687) MAEELVLERCDLELETNGRDHHTADLCREKLVVRRGQPFWLTLHFEGRNYEASVDSLTFSVVTGPAPSQEAGTKARFPLRDAVEEGDWTATVVDQQDCTLSLQLTTPANAPIGLYRLSLEASTGYQGSSFVLGHFILLFNAWCPADAVYLDSEEERQEYVLTQQGFIYQGSAKFIKNIPWNFGQFEDGILDICLILLDVNPKFLKNAGRDCSRRSSPVYVGRVVSGMVNCNDDQGVLLGRWDNNYGDGVSPMSWIGSVDILRRWKNHGCQRVKYGQSWVFAAVACTVLRCLGIPTRVVTNYNSAHDQNSNLLIEYFRNEFGEIQGDKSEMIWNFHCWVESWMTRPDLQPGYEGWQALDPTPQEKSEGTYCCGPVPVRAIKEGDLSTKYDAPFVFAEVNADVVDWIQQDDGSVHKSINRSLIVGLKISTKSVGRDEREDITHTYKYPEGSSEEREAFTRANHLNKLAEKEETGMAMRIRVGQSMNMGSDFDVFAHITNNTAEEYVCRLLLCARTVSYNGILGPECGTKYLLNLNLEPFSEKSVPLCILYEKYRDCLTESNLIKVRALLVEPVINSYLLAERDLYLENPEIKIRILGEPKQKRKLVAEVSLQNPLPVALEGCTFTVEGAGLTEEQKTVEIPDPVEAGEEVKVRMDLLPLHMGLHKLVVNFESDKLKAVKGFRNVIIGPA"
3,binds,"TG2-R580A (GTP binding deficient mutant of human TG2) (enzyme, UniProt P21980 1-687) MAEELVLERCDLELETNGRDHHTADLCREKLVVRRGQPFWLTLHFEGRNYEASVDSLTFSVVTGPAPSQEAGTKARFPLRDAVEEGDWTATVVDQQDCTLSLQLTTPANAPIGLYRLSLEASTGYQGSSFVLGHFILLFNAWCPADAVYLDSEEERQEYVLTQQGFIYQGSAKFIKNIPWNFGQFEDGILDICLILLDVNPKFLKNAGRDCSRRSSPVYVGRVVSGMVNCNDDQGVLLGRWDNNYGDGVSPMSWIGSVDILRRWKNHGCQRVKYGQCWVFAAVACTVLRCLGIPTRVVTNYNSAHDQNSNLLIEYFRNEFGEIQGDKSEMIWNFHCWVESWMTRPDLQPGYEGWQALDPTPQEKSEGTYCCGPVPVRAIKEGDLSTKYDAPFVFAEVNADVVDWIQQDDGSVHKSINRSLIVGLKISTKSVGRDEREDITHTYKYPEGSSEEREAFTRANHLNKLAEKEETGMAMRIRVGQSMNMGSDFDVFAHITNNTAEEYVCRLLLCARTVSYNGILGPECGTKYLLNLNLEPFSEKSVPLCILYEKYRDCLTESNLIKVRALLVEPVINSYLLAEADLYLENPEIKIRILGEPKQKRKLVAEVSLQNPLPVALEGCTFTVEGAGLTEEQKTVEIPDPVEAGEEVKVRMDLLPLHMGLHKLVVNFESDKLKAVKGFRNVIIGPA"
